Reference: publication PMC2739719
These are yes or no findings as the source states them, for the method shown. In cells and extracts the contact can be indirect. Here binding means that the protein was enriched with, or labelled near, the bait; the list need not be complete. Tags and fused reporters may be left off the sequences shown. One block for each molecule: values may come before it.

By UniProt entry, the sequences of proteins in these tests, tags left out. Residues count along the entry.
UniProt P02545, residues 1-646: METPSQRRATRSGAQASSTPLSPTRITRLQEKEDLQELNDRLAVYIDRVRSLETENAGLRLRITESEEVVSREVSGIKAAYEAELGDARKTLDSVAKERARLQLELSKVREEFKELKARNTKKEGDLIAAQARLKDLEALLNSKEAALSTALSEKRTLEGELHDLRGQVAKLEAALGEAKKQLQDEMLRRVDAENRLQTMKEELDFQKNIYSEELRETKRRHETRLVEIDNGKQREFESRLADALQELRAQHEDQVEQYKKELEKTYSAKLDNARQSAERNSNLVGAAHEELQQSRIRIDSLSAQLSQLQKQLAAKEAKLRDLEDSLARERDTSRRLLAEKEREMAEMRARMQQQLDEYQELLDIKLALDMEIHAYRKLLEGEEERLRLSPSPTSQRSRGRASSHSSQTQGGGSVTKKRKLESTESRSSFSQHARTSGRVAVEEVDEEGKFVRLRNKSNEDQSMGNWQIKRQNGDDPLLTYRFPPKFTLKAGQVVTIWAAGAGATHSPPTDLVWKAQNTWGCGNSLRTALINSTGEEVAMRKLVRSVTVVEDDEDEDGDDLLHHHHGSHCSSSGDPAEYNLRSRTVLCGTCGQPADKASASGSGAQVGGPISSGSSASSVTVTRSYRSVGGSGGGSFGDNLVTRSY

Assays:
[1] = molecular target: T1, recombinant purified His-tagged human BAF (H6BAF) dimers (human) (UniProt O75531); assay: affinity purification with mass spectrometry; 30 µg H6BAF dimers on Ni-NTA beads, 500 µg pre-cleared HeLa nuclear lysate (benzonase-treated), 3 hrs 4°C; eluted with 0.3 M then 1 M NaCl; LC-MS/MS of eluates; Ni beads alone as control; only the target purified
T1 sequence: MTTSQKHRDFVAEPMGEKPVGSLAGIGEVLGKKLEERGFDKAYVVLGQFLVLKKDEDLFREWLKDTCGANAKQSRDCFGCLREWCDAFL

[2] = molecular target: T1, recombinant purified His-tagged human BAF (H6BAF) dimers (human); assay: affinity purification with mass spectrometry; scaled up: 100 µg Ni-BAF beads, 5 mg HeLa nuclear lysate proteins; 0.3 M and 1 M NaCl eluates of BAF and control beads labelled with iTRAQ 4-plex reagents; enrichment against bead-only controls; only the target purified

B2: Heterogeneous nuclear ribonucleoprotein L (hnRNP L) (protein, UniProt P14866 1-589)
chain: MSRRLLPRAEKRRRRLEQRQQPDEQRRRSGAMVKMAAAGGGGGGGRYYGGGSEGGRAPKRLKTDNAGDQHGGGGGGGGGAGAAGGGGGGENYDDPHKTPASPVVHIRGLIDGVVEADLVEALQEFGPISYVVVMPKKRQALVEFEDVLGACNAVNYAADNQIYIAGHPAFVNYSTSQKISRPGDSDDSRSVNSVLLFTILNPIYSITTDVLYTICNPCGPVQRIVIFRKNGVQAMVEFDSVQSAQRAKASLNGADIYSGCCTLKIEYAKPTRLNVFKNDQDTWDYTNPNLSGQGDPGSNPNKRQRQPPLLGDHPAEYGGPHGGYHSHYHDEGYGPPPPHYEGRRMGPPVGGHRRGPSRYGPQYGHPPPPPPPPEYGPHADSPVLMVYGLDQSKMNCDRVFNVFCLYGNVEKVKFMKSKPGAAMVEMADGYAVDRAITHLNNNFMFGQKLNVCVSKQPAIMPGQSYGLEDGSCSYKDFSESRNNRFSTPEQAAKNRIQHPSNVLHFFNAPLEVTEENFFEICDELGVKRPSSVKVFSGKSERSSSGLLEWESKSDALETLGFLNHYQMKNPNGPYPYTLKLCFSTAQHAS
binding [2]: binds

B3: Treacle protein (Treacher Collins syndrome protein) (protein, UniProt Q13428 1-1488)
chain: MAEARKRRELLPLIYHHLLRAGYVRAAREVKEQSGQKCFLAQPVTLLDIYTHWQQTSELGRKRKAEEDAALQAKKTRVSDPISTSESSEEEEEAEAETAKATPRLASTNSSVLGADLPSSMKEKAKAETEKAGKTGNSMPHPATGKTVANLLSGKSPRKSAEPSANTTLVSETEEEGSVPAFGAAAKPGMVSAGQADSSSEDTSSSSDETDVEGKPSVKPAQVKASSVSTKESPARKAAPAPGKVGDVTPQVKGGALPPAKRAKKPEEESESSEEGSESEEEAPAGTRSQVKASEKILQVRAASAPAKGTPGKGATPAPPGKAGAVASQTKAGKPEEDSESSSEESSDSEEETPAAKALLQAKASGKTSQVGAASAPAKESPRKGAAPAPPGKTGPAVAKAQAGKREEDSQSSSEESDSEEEAPAQAKPSGKAPQVRAASAPAKESPRKGAAPAPPRKTGPAAAQVQVGKQEEDSRSSSEESDSDREALAAMNAAQVKPLGKSPQVKPASTMGMGPLGKGAGPVPPGKVGPATPSAQVGKWEEDSESSSEESSDSSDGEVPTAVAPAQEKSLGNILQAKPTSSPAKGPPQKAGPVAVQVKAEKPMDNSESSEESSDSADSEEAPAAMTAAQAKPALKIPQTKACPKKTNTTASAKVAPVRVGTQAPRKAGTATSPAGSSPAVAGGTQRPAEDSSSSEESDSEEEKTGLAVTVGQAKSVGKGLQVKAASVPVKGSLGQGTAPVLPGKTGPTVTQVKAEKQEDSESSEEESDSEEAAASPAQVKTSVKKTQAKANPAAARAPSAKGTISAPGKVVTAAAQAKQRSPSKVKPPVRNPQNSTVLARGPASVPSVGKAVATAAQAQTGPEEDSGSSEEESDSEEEAETLAQVKPSGKTHQIRAALAPAKESPRKGAAPTPPGKTGPSAAQAGKQDDSGSSSEESDSDGEAPAAVTSAQVIKPPLIFVDPNRSPAGPAATPAQAQAASTPRKARASESTARSSSSESEDEDVIPATQCLTPGIRTNVVTMPTAHPRIAPKASMAGASSSKESSRISDGKKQEGPATQVSKKNPASLPLTQAALKVLAQKASEAQPPVARTQPSSGVDSAVGTLPATSPQSTSVQAKGTNKLRKPKLPEVQQATKAPESSDDSEDSSDSSSGSEEDGEGPQGAKSAHTLGPTPSRTETLVEETAAESSEDDVVAPSQSLLSGYMTPGLTPANSQASKATPKLDSSPSVSSTLAAKDDPDGKQEAKPQQAAGMLSPKTGGKEAASGTTPQKSRKPKKGAGNPQASTLALQSNITQCLLGQPWPLNEAQVQASVVKVLTELLEQERKKVVDTTKESSRKGWESRKRKLSGDQPAARTPRSKKKKKLGAGEGGEASVSPEKTSTTSKGKAKRDKASGDVKEKKGKGSLGSQGAKDEPEEELQKGMGTVEGGDQSNPKSKKEKKKSDKRKKDKEKKEKKKKAKKASTKDSESPSQKKKKKKKKTAEQTV
binding [2]: binds

Other lines, results leading:

binding [1]: binds
binding [2]: binds
Molecule: Lamin A/C (from UniProt P02545 1-646)

binding [2]: binds
B1: NonO protein (protein, UniProt Q15233 1-471)
chain: MQSNKTFNLEKQNHTPRKHHQHHHQQQHHQQQQQQPPPPPIPANGQQASSQNEGLTIDLKNFRKPGEKTFTQRSRLFVGNLPPDITEEEMRKLFEKYGKAGEVFIHKDKGFGFIRLETRTLAEIAKVELDNMPLRGKQLRVRFACHSASLTVRNLPQYVSNELLEEAFSVFGQVERAVVIVDDRGRPSGKGIVEFSGKPAARKALDRCSEGSFLLTTFPRPVTVEPMDQLDDEEGLPEKLVIKNQQFHKEREQPPRFAQPGSFEYEYAMRWKALIEMEKQQQDQVDRNIKEAREKLEMEMEAARHEHQVMLMRQDLMRRQEELRRMEELHNQEVQKRKQLELRQEEERRRREEEMRRQQEEMMRRQQEGFKGTFPDAREQEIRMGQMAMGGAMGINNRGAMPPAPVPAGTPAPPGPATMMPDGTLGLTPPTTERFGQAATMEGIGAIGGTPPAFNRAAPGAEFAPNKRRRY
